Data from publication PMC12572689.
The exact form of at least one protein or probe is not confirmed.

Amino acid sequences for entries named in this document (tags omitted). Residues count along the entry.
UniProt P00004, 2-105: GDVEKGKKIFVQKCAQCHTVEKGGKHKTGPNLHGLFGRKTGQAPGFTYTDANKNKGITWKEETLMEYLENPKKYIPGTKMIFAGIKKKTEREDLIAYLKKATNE

Biological target: cytochrome c (Equus caballus (equine heart)) (UniProt P00004)
Assay: absorption spectroscopy
Details: cited value, cyt c source of cited work not stated; commercial protein; single-stranded DNA

In the case of “AGTGTGAAATATCTAAACTAAATGTGGAGGGTGGGACGGGAAGAAGTTTATTTTTCACACT [Apt61]”, the Kd is reported as 4.6 µM.
